Data source: PubChem BioAssay AID602196 (INSERM, 2012)

Screen: 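Modifiers of cisplatin sensitivity in A549 cells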
System: human A549 lung cancer cells
Reagents: siRNA pair against human genes
Time to read-out: 48 h transfection before cisplatin; time from cisplatin to read-out not stated
Treatment: cisplatin at a dose killing half of control-siRNA cells; exact dose and duration not given
Measured: 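Cisplatin cell death as a shift from the 50% death seen with control siRNA; siRNAs toxic or growth-blocking alone scored 0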
Direction: two-siRNA summed score (-2 to +2): higher = both siRNAs protect from cisplatin killing; -2 means both sensitise
Rule for the call: 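siRNAs harmful alone (LDH or WST-1) get 0; others get +1 for less and -1 for more cisplatin killing; genes are active when the two siRNAs give the same sign, summing to ±2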
Meaning of the calls: active = both siRNAs shift cisplatin killing the same way; inactive = no consistent shift, or siRNA harmful alone
Shown is a random part of about 23,000 deposited reagents. In the full data, 455 (2%) are marked active. 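Active includes both protection and sensitisation; some change values fall well beyond the stated -50 to +50 range.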 A number with no mark means an inactive call. Further read-outs or replicates are left out here. Reagent sequences are not shown. The record does not give: the amount of reagent.

Silencing of LOC442015 gave: two-siRNA summed score (-2 to +2) = 0.
After knock-down of LOC400496, the record shows two-siRNA summed score (-2 to +2) = 0.
Silencing of GPR119 resulted in: two-siRNA summed score (-2 to +2) = 0.
For NIPAL2 the deposit lists two-siRNA summed score (-2 to +2) = 0.
Against GPBAR1, the entry reads two-siRNA summed score (-2 to +2) = 0.
Silencing of SACK1E resulted in: two-siRNA summed score (-2 to +2) = 0.
CLUL1 scored two-siRNA summed score (-2 to +2) = 1.
Against RETREG2, the values are two-siRNA summed score (-2 to +2) = 1.
Against FLJ44674 (retired record) the deposit lists two-siRNA summed score (-2 to +2) = 1.
TPM3P9 gave two-siRNA summed score (-2 to +2) = 0.
Knock-down of LOC389362 resulted in: two-siRNA summed score (-2 to +2) = 1.
With knock-down of OR4E2, the record shows two-siRNA summed score (-2 to +2) = 0.
SERPI-11 scored two-siRNA summed score (-2 to +2) = -1.
Depletion of LINC00649 came out at: two-siRNA summed score (-2 to +2) = 0.
For LOC129881 the deposit lists two-siRNA summed score (-2 to +2) = 0.

3 entries already listed, arranged by “two-siRNA summed score (-2 to +2)”, lowest first.
TPM3P9 — two-siRNA summed score (-2 to +2): 0
RETREG2 — two-siRNA summed score (-2 to +2): 1
FLJ44674 (retired record) — two-siRNA summed score (-2 to +2): 1

Additional entries follow:
Silencing of SERPINE1 resulted in: two-siRNA summed score (-2 to +2) = 0.
For RSPH4A, the values are two-siRNA summed score (-2 to +2) = 1.
For LOC442428 the deposit lists two-siRNA summed score (-2 to +2) = 1.
Silencing of LOC389137 came out at: two-siRNA summed score (-2 to +2) = 0.
Depletion of EZH2 gave: two-siRNA summed score (-2 to +2) = -1.
Depletion of SCAMP3 resulted in: two-siRNA summed score (-2 to +2) = 0.
With knock-down of MS4A10, the record shows two-siRNA summed score (-2 to +2) = -1.
Against WBP11 the deposit lists two-siRNA summed score (-2 to +2) = 0.
SLC44A5 gave two-siRNA summed score (-2 to +2) = 2 (active).
LOC344423 scored two-siRNA summed score (-2 to +2) = 0.
Against ISX, the values are two-siRNA summed score (-2 to +2) = 0.
Silencing of CWC15 resulted in: two-siRNA summed score (-2 to +2) = -1.
FUT9 showed two-siRNA summed score (-2 to +2) = 1.
With knock-down of CLEC4C, the record shows two-siRNA summed score (-2 to +2) = 0.
For HS3ST3B1, the entry reads two-siRNA summed score (-2 to +2) = 0.
PLEKHA6 scored two-siRNA summed score (-2 to +2) = 1.
